Reference: doi:10.1101/2020.11.17.385245

Molecular target: T1, endogenous Fe65 (A549 cells) (human (endogenous in A549)) (UniProt O00213)
T1 sequence: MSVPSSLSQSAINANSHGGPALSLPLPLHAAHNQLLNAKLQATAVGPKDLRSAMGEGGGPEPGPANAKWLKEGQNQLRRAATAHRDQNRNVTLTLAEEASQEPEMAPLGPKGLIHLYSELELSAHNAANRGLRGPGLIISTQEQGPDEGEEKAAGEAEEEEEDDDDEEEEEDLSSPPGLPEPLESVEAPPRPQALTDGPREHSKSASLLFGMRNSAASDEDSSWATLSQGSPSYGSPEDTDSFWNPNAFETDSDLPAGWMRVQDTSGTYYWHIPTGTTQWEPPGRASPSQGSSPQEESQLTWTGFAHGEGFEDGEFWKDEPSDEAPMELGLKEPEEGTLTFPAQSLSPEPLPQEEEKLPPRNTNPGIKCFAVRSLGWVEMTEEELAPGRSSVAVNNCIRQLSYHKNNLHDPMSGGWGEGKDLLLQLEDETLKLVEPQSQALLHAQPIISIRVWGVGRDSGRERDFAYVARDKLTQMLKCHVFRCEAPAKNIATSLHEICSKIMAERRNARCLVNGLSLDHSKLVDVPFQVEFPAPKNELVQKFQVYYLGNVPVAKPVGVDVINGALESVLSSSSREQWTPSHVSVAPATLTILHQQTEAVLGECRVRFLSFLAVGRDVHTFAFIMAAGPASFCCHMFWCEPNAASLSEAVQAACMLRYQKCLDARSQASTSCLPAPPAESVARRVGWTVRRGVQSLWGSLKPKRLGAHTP
Experiment: co-IP

endogenous PP1 (human (endogenous in A549)) (enzyme)
binding: binds

These are yes or no findings as the source states them, for the method shown. In cells and extracts the contact can be indirect. Binding calls can cover weak binding; strength is not graded here.
